In brackets after ≈: the same amount, converted by molar mass.
Tests used:
Blastococcus sp. S21A-2 = assay type: cell-based; conditions: Blastococcus sp. S21A-2, isolated from acne lesions
Experimental: (§1) MIC of besifloxacin and other antibiotics molecules were determined by micro broth dilution method as per the Clinical and Laboratory Standards Institute (CLSI) guideline. MIC assay is the determinant of the inherent anti-microbial potency of a particular molecule. For preparing inoculum, bacterial strains were cultured in Brain Heart Infusion Agar (BHIA) at 37° C. for 24 hours. […] For bacterial inoculum, bacterial culture turbidity was adjusted to 0.1 OD at 600 nm in UV-Visual spectrophotometer (approximately 1.5×10^8 cells/ml) and further diluted (100 times with sterile BHI broth). Diluted bacterial suspension (100 μl) was added to each well except sterility control wells (column 12 of 96 well plate). Column 11 of 96 well plate was used as growth control and vehicle control. The plates were incubated at 37° C. for 24 h. The MIC of the test compounds were determined by observing the lowest concentration of test compound that prevented the visual bacterial growth.
(§2) Different skin resident bacteria were isolated from acne lesions of moderate to severe acne patients.

Kocuria sp. S18-1 = assay: MIC against bacteria isolated from acne lesions, Table 2; assay type: cell-based; conditions: SP.S181; Kocuria sp. S18-1, isolated from acne lesions; read-out: Minimum Inhibitory Concentration
Experimental: as §1, §2

S. epidermidis S1-1 = assay: as above; assay type: cell-based; conditions: Staphylococcus epidermidis, S11; S. epidermidis S1-1, isolated from acne lesions; read-out: Minimum Inhibitory Concentration
Experimental: as §1, §2

[1] = tested on: Dermatobacter hominis S11-2; assay: as above; assay type: cell-based; conditions: S112; Dermatobacter hominis S11-2, isolated from acne lesions; read-out: Minimum Inhibitory Concentration
Experimental: as §1, §2

[2] = tested on: Staphylococcus haemolyticus M1-1; assay: as above; assay type: cell-based; conditions: M11; Staphylococcus haemolyticus M1-1, isolated from acne lesions; read-out: Minimum Inhibitory Concentration
Experimental: as §1, §2

K. pneumoniae S6-1 = assay: as above; assay type: cell-based; conditions: Klebsiella pneumoniae, S61; K. pneumoniae S6-1, isolated from acne lesions; read-out: Minimum Inhibitory Concentration
Experimental: as §1, §2

P. avidum S3-1 = assay: as above; assay type: cell-based; conditions: Cutibacterium avidum, S31; P. avidum S3-1, isolated from acne lesions; read-out: Minimum Inhibitory Concentration
Experimental: as §1, §2

[3] = tested on: Enterobacter aerogenes M2-1; assay: as above; assay type: cell-based; conditions: Klebsiella aerogenes, M21; Enterobacter aerogenes M2-1, isolated from acne lesions; read-out: Minimum Inhibitory Concentration
Experimental: as §1, §2

[4] = tested on: Bacillus megaterium M1-2.; assay: as above; assay type: cell-based; conditions: Priestia megaterium, M12., read-out: Minimum Inhibitory Concentration
Experimental: as §1, §2

Microbacterium sp. S20-2 = assay: as above; assay type: cell-based; conditions: Microbacterium sp. S20-2, isolated from acne lesions
Experimental: as §1, §2

P. acnes V3-1 = assay: as above; assay type: cell-based, Propionibacterium acnes; conditions: Cutibacterium acnes, V31; P. acnes V3-1, isolated from acne lesions; read-out: Minimum Inhibitory Concentration
Experimental: as §1, §2

## CCC[C@@H]1C[C@@H](C(=O)N[C@@H]([C@H]2O[C@H](SC)[C@H](O)[C@@H](O)[C@H]2O)[C@H](C)Cl)N(C)C1 [Clindamycin]
Blastococcus sp. S21A-2
  Minimum Inhibitory Concentration: 0.25 µg/mL
Kocuria sp. S18-1
  MIC: 1 µg/mL (≈ 2.35 µM)
S. epidermidis S1-1
  MIC: > 4 µg/mL
[1]
  MIC: > 4 µg/mL
[2]
  MIC: 0.13 µg/mL (≈ 0.306 µM)
K. pneumoniae S6-1
  MIC: > 4 µg/mL
P. avidum S3-1
  MIC: 0.06 µg/mL (≈ 0.141 µM)
[3]
  MIC: > 4 µg/mL
[4]
  MIC: > 4 µg/mL
Microbacterium sp. S20-2
  Minimum Inhibitory Concentration: >4 µg/mL
P. acnes V3-1
  MIC: 0.5 µg/mL (≈ 1.18 µM)

Source: US20210393520A1, “TREATMENT OF GRAM-NEGATIVE FOLLICULITIS OR AN INFLAMMATION THEREOF WITH BESIFLOXACIN” (VYOME THERAPEUTICS LIMITED, priority 2018, published 2021)
